Laboratory results: PubChem BioAssay AID1259308 (NCATS, 2017)

Aim: 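Genes whose loss raises luciferase production in HEK293 cells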 (primary screen)
Cells: human HEK293 embryonic kidney cells stably expressing firefly luciferase (HEK-CMV-Luc2-Hygro)
Reagent: single siRNA against human genes, 0.8 pmol siRNA per well
Duration: 72 h
Read-out: 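Luciferase light (ONE-Glo) measured on one replicate plate set and viability (CellTiter-Glo) on the other, scaled to a negative control siRNA, with robust z-scores and luciferase per cell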
Direction: total luciferase, z-score and total luciferase, % of control: higher = more reporter protein produced; luciferase per cell, z-score: higher = more reporter output per viable cell; viable cells, % of control: higher = more viable cells
Hit rule: 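Active when the median/MAD z-score for overall luciferase is greater than 3; a gene was taken forward for validation with new siRNAs if at least two of its three siRNAs passed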
Calls: active = raised luciferase; inactive = no rise
The deposit covers about 59,000 reagents; below is an unselected part. About 1,510 of them (2.6%) were called active. 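Calls use total luciferase alone and ignore viability, so some active siRNAs may act by altering cell number.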 The numbers tell different reagents against one gene apart.

Target gene,siRNA no.,"total luciferase, z-score","total luciferase, % of control","luciferase per cell, z-score","viable cells, % of control",Call
ZP3,1,-0.844,65.1,1.29,51.9,inactive
ZP3,2,-0.828,65.4,-0.622,86.1,inactive
ZP3,3,0.951,101,1.79,70.3,inactive
CSAG2,1,-0.782,66.3,-0.00309,74.2,inactive
CSAG2,2,-0.353,74.9,-0.588,97.7,inactive
CSAG2,3,-0.716,67.6,1.13,56.2,inactive
CEP131,1,-0.299,75.9,-0.0686,86.4,inactive
CEP131,2,-1.52,51.7,-1.55,86.8,inactive
CEP131,3,1.07,103,1.54,76.8,inactive
ACOT12,1,-0.137,79.2,-0.28,95.2,inactive
ACOT12,2,-0.178,78.3,1.38,60.9,inactive
ACOT12,3,0.034,82.6,0.295,85.4,inactive
POU3F3,1,0.769,97.2,0.631,92,inactive
POU3F3,2,0.876,99.3,0.67,93,inactive
POU3F3,3,-1.59,50.2,-1.77,89.3,inactive
FOXI2,1,-0.739,67.2,-1.16,102,inactive
FOXI2,2,0.96,101,0.395,102,inactive
FOXI2,3,1.54,113,0.588,108,inactive
CCDC107,1,-0.12,79.5,0.168,85,inactive
CCDC107,2,-0.67,68.6,-0.156,79.8,inactive
CCDC107,3,0.344,88.7,0.816,80,inactive

Sorted by “total luciferase, z-score” (descending): some entries from above
Target gene,siRNA no.,"total luciferase, z-score","total luciferase, % of control","luciferase per cell, z-score","viable cells, % of control",Call
FOXI2,3,1.54,113,0.588,108,inactive
FOXI2,2,0.96,101,0.395,102,inactive
POU3F3,2,0.876,99.3,0.67,93,inactive
POU3F3,1,0.769,97.2,0.631,92,inactive
CCDC107,1,-0.12,79.5,0.168,85,inactive
FOXI2,1,-0.739,67.2,-1.16,102,inactive
POU3F3,3,-1.59,50.2,-1.77,89.3,inactive

The listing continues.
Target gene,siRNA no.,"total luciferase, z-score","total luciferase, % of control","luciferase per cell, z-score","viable cells, % of control",Call
PRSS35,1,0.303,87.9,-0.152,102,inactive
PRSS35,2,-0.00675,81.8,-0.496,104,inactive
PRSS35,3,0.72,96.2,0.197,102,inactive
METTL27,1,1.15,105,1.75,73.8,inactive
METTL27,2,0.145,84.8,-0.294,102,inactive
METTL27,3,-1.19,58.3,-1.31,91.8,inactive
NIPBL-DT,1,0.467,91.2,0.766,83.3,inactive
NIPBL-DT,2,0.125,84.4,-0.109,97,inactive
NIPBL-DT,3,0.634,94.5,0.339,96.6,inactive
CLSTN2,1,-0.386,74.2,-0.399,92.1,inactive
CLSTN2,2,-0.806,65.8,-0.549,85,inactive
CLSTN2,3,0.462,91.1,0.191,96.8,inactive
PAOX,1,-0.733,67.3,-1.13,101,inactive
PAOX,2,1.43,110,2.76,59.6,inactive
PAOX,3,-0.0298,81.3,-0.0181,91.3,inactive
SNRPB2,1,2.32,128,1.56,94.8,inactive
SNRPB2,2,0.857,98.9,0.829,88.9,inactive
SNRPB2,3,0.31,88,0.652,82.9,inactive
ERC2,1,-0.35,74.9,0.159,80.3,inactive
ERC2,2,0.967,101,1.35,79.2,inactive
ERC2,3,3.71,156,2.88,81.5,active
MIF,1,0.495,91.7,-0.00374,103,inactive
MIF,2,-0.531,71.3,-0.829,99.1,inactive
MIF,3,2.83,138,2.58,78.3,inactive
DACT1,1,0.041,82.7,-0.32,101,inactive
DACT1,2,0.889,99.6,1.25,80,inactive
DACT1,3,0.396,89.8,0.193,95.3,inactive
IFIT2,1,-0.266,76.6,0.052,84.4,inactive
IFIT2,2,-0.729,67.4,0.513,65.8,inactive
IFIT2,3,-0.575,70.4,-1.18,107,inactive
GTF2A1,1,2.55,133,1.55,98.5,inactive
GTF2A1,2,0.398,89.8,0.0454,99.2,inactive
GTF2A1,3,2.05,123,0.989,106,inactive
LINC03086,1,-0.12,79.5,-0.655,106,inactive
LINC03086,2,1.66,115,2.2,72,inactive
LINC03086,3,-1.06,60.8,-0.444,76.4,inactive
